No constants are given. Whether binding was seen depends on the method and setting. Binding seen in cells or lysates may run through a third protein. Some binding calls cover weakened binding; strength is not graded here.
What was measured:
[1] = molecular target: GST-tagged human E2F6 (human) (UniProt O75461); assay: pull-down; S^35-radiolabeled in vitro translated Myc-EBNA3C full length and truncated mutants, pre-cleared with GST beads, incubated with GST control or GST-E2F6 and GST beads; binding buffer 0.1% NP-40, 0.5 mM DTT, 10% glycerol in 1X PBS; only the target purified
[2] = molecular target: GST-tagged human E2F6 (human) (UniProt O75461); assay: pull-down; lysates of 50 million B-cells (BJAB, BJAB7, BJAB10, LCL1, LCL2) incubated with GST control or GST-E2F6 and GST beads; western blot with anti-EBNA3C (A10); only the target purified
[3] = molecular target: endogenous E2F1 of B-cell lines (human (endogenous in BJAB7, BJAB10, LCL1, LCL2)) (UniProt Q01094); assay: co-IP; endogenous proteins in B-cell lysates (BJAB, BJAB7, BJAB10, LCL1, LCL2) in RIPA buffer, IP with anti-EBNA3C (A10), anti-E2F6 or anti-E2F1 antibody overnight at 4°C, western blot
[4] = molecular target: endogenous E2F6 of B-cell lines (human (endogenous in BJAB7, BJAB10, LCL1, LCL2)) (UniProt O75461); assay: as above
Myc-E2F6 (human) = Myc-E2F6 (human) (UniProt O75461); assay: co-IP; competitive binding: HEK-293 or Saos-2 electroporated with Myc-E2F6, Flag-E2F1 and increasing amounts of EBNA3C plasmid; IP with anti-Myc, western blot
[5] = molecular target: EBNA3C of EBV-transformed lymphoblastoid cell lines (LCL1, LCL2) (Epstein-Barr virus (endogenous in EBV-transformed LCL1, LCL2)) (UniProt P03204); assay: co-IP; endogenous proteins in B-cell lysates (BJAB, BJAB7, BJAB10, LCL1, LCL2) in RIPA buffer, IP with anti-EBNA3C (A10), anti-E2F6 or anti-E2F1 antibody overnight at 4°C, western blot
Flag-tagged E2F2 (human) = Flag-tagged E2F2 (human) (UniProt Q14209); assay: co-IP; HEK-293 or Saos-2 co-transfected with Myc-EBNA3C and Flag-tagged E2F plasmids, lysed 36 h post-transfection, IP with 1 ug mouse anti-Flag (M2), western blot; S1A Fig: HEK-293, IP with rabbit anti-E2F6
[6] = molecular target: Flag-tagged E2F1 (wild type) (human) (UniProt Q01094); assay: as above
[7] = molecular target: Flag-tagged E2F3a (human) (UniProt O00716); assay: as above
[8] = molecular target: Flag-tagged human E2F6 (human) (UniProt O75461); assay: as above

“EBNA3C C-terminal domain (residues 900–992), in vitro translated (from UniProt P03204 900-992) (domain or fragment)” was tested, and the binding [1] was “binds”.
With “EBNA3C of EBV-transformed lymphoblastoid cell lines (LCL1, LCL2) (from UniProt P03204 1-992)” the binding [2] was “binds”, the binding [3] was “binds” and the binding [4] was “binds”.
In the case of “EBNA3C stably expressed in BJAB cells (BJAB7, BJAB10) (from UniProt P03204 1-992)”, the binding [2] is reported as “binds”, the binding [3] is reported as “binds” and the binding [4] is reported as “binds”.
“EBNA3C (expression construct of the competitive binding assay) (from UniProt P03204 1-992)” was tested, and the binding (Myc-E2F6 (human)) was “binds”.
For “Myc-tagged EBNA3C full length, in vitro translated (from UniProt P03204 1-992)”, the binding [1] was “binds”.
With “endogenous E2F6 of B-cell lines (from UniProt O75461-1 1-281)” the binding [3] was “binds” and the binding [5] was “binds”.
In the case of “EBNA3C N-terminal domain (residues 100–200), in vitro translated (from UniProt P03204 100-200) (domain or fragment)”, the binding [1] is reported as “binds”.
For “Myc-tagged EBNA3C full length (EBV nuclear antigen 3C) (from UniProt P03204 1-992)”, the binding (Flag-tagged E2F2 (human)) was “binds”, the binding [6] was “binds” and the binding [7] was “binds”. The binding [8] was “binds”.

— article PMC4993364
